Data as given in paper PMC4503752.
These are yes or no findings as the source states them, for the method shown. In cells and extracts the contact can be indirect. These calls come from enrichment with a bait or labelling near it, and not all partners need be listed.

The chains behind the UniProt entries cited, without tags or fusion partners.
UniProt O88569: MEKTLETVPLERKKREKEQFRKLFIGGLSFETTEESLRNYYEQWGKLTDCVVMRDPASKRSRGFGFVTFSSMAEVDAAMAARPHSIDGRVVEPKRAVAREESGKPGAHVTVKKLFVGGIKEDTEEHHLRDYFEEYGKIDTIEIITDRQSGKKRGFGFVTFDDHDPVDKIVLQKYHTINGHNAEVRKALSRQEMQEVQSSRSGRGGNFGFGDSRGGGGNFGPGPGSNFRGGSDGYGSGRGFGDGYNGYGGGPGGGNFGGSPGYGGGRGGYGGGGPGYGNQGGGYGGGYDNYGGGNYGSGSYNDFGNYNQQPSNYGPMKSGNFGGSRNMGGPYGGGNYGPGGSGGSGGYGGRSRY

Target: Argonaute 1 (AGO1) (mouse (endogenous in ADSCs)) (UniProt Q8CJG1)
Experiment: affinity purification with mass spectrometry; RISC / AGO1 complex immunoprecipitated from Dicer-deficient ADSCs with or without miR-369 transfection; gel separation, silver staining, LC-MS/MS

binding: binds
Substance: HNRNPA2B1 (heterogeneous nuclear ribonucleoprotein A2/B1) (from UniProt O88569 1-353)
